Data: article doi:10.1101/2024.07.02.601518
Results are given in words; binding and its absence hold for the method and conditions named. Binding seen in cells or lysates may run through a third protein. Some results given as binding are weak or reduced against the parent protein; the word gives no strength.

Protein sequences, listed by entry. Tags and fused reporters are not part of them.
UniProt Q13148: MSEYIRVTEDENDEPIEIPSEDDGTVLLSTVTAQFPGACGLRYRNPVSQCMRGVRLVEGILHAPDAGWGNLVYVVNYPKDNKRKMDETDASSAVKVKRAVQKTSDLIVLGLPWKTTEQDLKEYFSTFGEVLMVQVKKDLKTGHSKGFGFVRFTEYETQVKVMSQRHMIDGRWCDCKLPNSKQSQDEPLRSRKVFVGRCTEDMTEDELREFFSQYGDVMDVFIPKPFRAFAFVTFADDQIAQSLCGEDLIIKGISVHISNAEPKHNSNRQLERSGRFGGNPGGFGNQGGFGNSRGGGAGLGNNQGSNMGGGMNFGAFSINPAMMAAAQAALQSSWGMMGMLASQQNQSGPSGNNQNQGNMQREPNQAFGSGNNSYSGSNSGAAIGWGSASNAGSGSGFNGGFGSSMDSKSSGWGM
UniProt Q16665: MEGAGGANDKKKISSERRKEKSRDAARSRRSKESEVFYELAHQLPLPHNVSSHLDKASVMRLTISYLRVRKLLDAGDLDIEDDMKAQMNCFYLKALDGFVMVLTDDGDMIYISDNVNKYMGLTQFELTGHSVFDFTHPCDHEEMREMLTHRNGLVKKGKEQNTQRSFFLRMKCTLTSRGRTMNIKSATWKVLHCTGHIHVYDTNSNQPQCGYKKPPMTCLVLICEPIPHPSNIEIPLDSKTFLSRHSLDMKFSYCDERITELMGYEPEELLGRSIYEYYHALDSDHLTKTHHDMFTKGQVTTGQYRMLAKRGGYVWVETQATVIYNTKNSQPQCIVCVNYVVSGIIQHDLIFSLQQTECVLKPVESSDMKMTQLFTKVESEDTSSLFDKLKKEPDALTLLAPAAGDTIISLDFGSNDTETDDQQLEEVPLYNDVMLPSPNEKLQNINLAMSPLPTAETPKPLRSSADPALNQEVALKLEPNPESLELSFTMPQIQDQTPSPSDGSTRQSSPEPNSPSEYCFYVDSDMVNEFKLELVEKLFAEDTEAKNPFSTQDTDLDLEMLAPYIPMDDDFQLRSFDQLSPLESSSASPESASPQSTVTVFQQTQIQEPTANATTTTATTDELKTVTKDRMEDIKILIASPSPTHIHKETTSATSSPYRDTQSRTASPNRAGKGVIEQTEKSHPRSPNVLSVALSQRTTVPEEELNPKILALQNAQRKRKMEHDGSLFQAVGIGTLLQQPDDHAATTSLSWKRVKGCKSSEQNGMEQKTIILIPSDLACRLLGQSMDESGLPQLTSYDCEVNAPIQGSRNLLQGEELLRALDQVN
UniProt Q9H0K1: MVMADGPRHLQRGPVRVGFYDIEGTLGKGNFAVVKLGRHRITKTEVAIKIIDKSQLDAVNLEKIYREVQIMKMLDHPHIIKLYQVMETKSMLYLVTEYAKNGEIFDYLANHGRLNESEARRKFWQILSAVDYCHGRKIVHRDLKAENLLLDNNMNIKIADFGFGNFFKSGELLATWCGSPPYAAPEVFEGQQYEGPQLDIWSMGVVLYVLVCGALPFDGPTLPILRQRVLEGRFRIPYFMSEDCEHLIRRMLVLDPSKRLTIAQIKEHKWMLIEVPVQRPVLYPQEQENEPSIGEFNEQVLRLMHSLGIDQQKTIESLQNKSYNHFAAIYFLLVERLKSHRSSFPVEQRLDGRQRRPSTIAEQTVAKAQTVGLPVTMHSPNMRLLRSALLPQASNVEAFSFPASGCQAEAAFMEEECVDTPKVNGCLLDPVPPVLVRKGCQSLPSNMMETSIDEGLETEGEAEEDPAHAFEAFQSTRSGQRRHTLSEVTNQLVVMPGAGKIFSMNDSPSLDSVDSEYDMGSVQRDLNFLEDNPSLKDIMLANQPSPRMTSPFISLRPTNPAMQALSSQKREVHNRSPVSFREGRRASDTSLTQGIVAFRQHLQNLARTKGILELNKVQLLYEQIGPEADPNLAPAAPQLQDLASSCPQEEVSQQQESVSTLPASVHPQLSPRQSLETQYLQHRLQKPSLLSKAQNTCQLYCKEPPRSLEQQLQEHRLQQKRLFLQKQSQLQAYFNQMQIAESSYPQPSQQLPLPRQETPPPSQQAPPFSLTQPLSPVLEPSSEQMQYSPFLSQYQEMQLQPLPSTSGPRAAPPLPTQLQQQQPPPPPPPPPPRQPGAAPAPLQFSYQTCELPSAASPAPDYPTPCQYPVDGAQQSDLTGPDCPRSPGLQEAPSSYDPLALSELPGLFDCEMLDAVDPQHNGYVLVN

Experiments:
[1] = target: TDP-43, human (human (endogenous in UT7/TPO)) (UniProt Q13148); assay: co-IP
[2] = target: Hypoxia-inducible factor 1-alpha (HIF-1α), human (human (endogenous in UT7/TPO)) (UniProt Q16665); assay: co-IP

Substance: Hypoxia-inducible factor 1-alpha (HIF-1α), human (from UniProt Q16665 1-826)
- binding [1]: binds

Substance: SIK2, human (from UniProt Q9H0K1 1-926)
- binding [2]: binds

Substance: TDP-43, human (from UniProt Q13148 1-414)
- binding [2]: binds
